Laboratory results: publication doi:10.1101/2020.07.15.204800 (bioRxiv, 2020)
Results are given in words; binding and its absence hold for the method and conditions named. In cells and extracts the contact can be indirect. Some entries that bind do so weakly or less than the wild type. Sequences can lack the tags named with a protein.

T1: GFP fusion of the entire WDR41 7CD loop sequence (354-393) (UniProt Q9HAD4)
T1 sequence: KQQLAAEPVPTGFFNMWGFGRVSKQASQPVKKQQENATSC

T2: GFP-WDR41-PIP (WDR41 PQLC2-interacting peptide, 364-373, as a GFP fusion)
T2 sequence: TGFFNMWGFG

T3: WDR41-HA F372A (UniProt Q9HAD4)
T3 sequence: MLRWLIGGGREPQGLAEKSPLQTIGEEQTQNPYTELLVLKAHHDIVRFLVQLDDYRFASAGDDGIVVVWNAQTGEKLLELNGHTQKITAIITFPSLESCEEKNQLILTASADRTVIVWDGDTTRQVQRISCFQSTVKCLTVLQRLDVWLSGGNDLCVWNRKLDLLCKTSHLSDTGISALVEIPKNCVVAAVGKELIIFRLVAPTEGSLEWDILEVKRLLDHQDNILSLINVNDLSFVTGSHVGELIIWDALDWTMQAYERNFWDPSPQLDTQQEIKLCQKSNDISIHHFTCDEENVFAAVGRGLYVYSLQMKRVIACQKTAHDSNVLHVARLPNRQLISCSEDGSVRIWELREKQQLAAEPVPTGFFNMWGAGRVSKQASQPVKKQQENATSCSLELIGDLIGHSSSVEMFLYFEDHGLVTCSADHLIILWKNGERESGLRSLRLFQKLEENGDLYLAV

T4: WDR41-HA M369A (UniProt Q9HAD4)
T4 sequence: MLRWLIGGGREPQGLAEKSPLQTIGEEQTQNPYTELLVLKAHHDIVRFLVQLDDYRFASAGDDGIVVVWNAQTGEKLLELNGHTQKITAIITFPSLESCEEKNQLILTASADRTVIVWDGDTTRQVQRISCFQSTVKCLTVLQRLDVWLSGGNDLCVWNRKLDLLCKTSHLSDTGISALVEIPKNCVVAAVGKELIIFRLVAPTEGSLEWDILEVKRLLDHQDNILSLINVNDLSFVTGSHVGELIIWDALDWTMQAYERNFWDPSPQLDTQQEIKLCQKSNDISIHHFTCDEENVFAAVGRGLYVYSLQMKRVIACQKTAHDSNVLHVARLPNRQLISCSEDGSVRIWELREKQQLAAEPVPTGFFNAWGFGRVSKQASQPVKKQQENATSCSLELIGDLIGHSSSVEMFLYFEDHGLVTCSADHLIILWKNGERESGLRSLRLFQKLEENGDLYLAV

T5: WDR41-HA N368A (UniProt Q9HAD4)
T5 sequence: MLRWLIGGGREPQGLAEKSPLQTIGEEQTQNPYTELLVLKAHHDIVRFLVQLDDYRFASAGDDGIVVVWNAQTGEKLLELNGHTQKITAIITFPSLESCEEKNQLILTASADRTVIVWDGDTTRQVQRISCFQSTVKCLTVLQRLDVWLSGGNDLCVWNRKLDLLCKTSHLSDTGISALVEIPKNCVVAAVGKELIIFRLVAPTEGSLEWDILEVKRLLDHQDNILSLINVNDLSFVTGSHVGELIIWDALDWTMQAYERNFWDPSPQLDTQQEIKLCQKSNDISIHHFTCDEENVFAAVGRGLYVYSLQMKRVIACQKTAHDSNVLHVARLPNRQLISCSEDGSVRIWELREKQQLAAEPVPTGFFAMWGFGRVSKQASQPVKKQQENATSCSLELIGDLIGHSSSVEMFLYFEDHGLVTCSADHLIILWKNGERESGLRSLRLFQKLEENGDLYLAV

T6: WDR41-HA T364A (UniProt Q9HAD4)
T6 sequence: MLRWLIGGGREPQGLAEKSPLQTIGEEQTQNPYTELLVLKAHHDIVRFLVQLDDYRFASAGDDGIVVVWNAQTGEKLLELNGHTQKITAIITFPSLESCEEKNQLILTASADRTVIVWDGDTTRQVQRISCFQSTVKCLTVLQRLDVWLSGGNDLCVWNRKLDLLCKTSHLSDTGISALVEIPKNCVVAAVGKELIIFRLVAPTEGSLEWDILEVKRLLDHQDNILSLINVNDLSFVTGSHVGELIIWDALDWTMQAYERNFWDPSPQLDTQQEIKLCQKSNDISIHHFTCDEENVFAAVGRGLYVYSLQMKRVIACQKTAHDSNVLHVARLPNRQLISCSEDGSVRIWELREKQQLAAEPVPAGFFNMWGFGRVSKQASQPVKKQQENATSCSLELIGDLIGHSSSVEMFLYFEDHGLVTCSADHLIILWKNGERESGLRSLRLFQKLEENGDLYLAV

T7: WDR41-HA W370A (UniProt Q9HAD4)
T7 sequence: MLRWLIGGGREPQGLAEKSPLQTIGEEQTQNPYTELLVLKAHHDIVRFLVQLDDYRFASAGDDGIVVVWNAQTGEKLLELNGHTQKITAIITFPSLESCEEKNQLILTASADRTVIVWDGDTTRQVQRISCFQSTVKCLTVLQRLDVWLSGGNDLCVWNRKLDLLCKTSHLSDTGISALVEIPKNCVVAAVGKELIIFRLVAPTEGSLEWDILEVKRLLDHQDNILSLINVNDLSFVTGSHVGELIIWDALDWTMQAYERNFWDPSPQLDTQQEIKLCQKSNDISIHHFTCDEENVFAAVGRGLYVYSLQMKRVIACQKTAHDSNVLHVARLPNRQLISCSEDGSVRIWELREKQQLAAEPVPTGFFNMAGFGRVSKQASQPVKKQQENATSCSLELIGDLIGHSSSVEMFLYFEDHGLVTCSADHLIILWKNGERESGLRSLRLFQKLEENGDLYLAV

T8: WDR41-HA with the 7CD loop (residues 354-393) replaced by the flexible linker GGSGGGSG (UniProt Q9HAD4)
T8 sequence: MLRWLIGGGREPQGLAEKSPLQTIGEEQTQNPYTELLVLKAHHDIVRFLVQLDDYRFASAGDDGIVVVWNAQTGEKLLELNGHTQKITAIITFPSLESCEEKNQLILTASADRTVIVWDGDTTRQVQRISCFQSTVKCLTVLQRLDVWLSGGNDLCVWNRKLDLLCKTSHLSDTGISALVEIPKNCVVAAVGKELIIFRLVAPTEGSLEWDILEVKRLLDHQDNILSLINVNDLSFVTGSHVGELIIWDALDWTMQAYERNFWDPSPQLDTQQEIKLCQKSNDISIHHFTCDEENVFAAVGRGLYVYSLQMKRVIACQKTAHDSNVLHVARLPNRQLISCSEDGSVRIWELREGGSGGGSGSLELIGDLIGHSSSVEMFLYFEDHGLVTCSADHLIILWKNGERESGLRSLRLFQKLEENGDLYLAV


Legend:
Test in all cases: co-IP
[1] = target: T1, GFP fusion of the entire WDR41 7CD loop sequence (354-393)
[2] = target: T2, GFP-WDR41-PIP (WDR41 PQLC2-interacting peptide, 364-373, as a GFP fusion)
WDR41-HA F372A = target: T3, WDR41-HA F372A
WDR41-HA M369A = target: T4, WDR41-HA M369A
WDR41-HA N368A = target: T5, WDR41-HA N368A
WDR41-HA T364A = target: T6, WDR41-HA T364A
WDR41-HA W370A = target: T7, WDR41-HA W370A
[3] = target: T8, WDR41-HA with the 7CD loop (residues 354-393) replaced by the flexible linker GGSGGGSG

| Binder | binding [1] | binding [2] | binding (WDR41-HA F372A) | binding (WDR41-HA M369A) | binding (WDR41-HA N368A) | binding (WDR41-HA T364A) | binding (WDR41-HA W370A) | binding [3] |
| --- | --- | --- | --- | --- | --- | --- | --- | --- |
| PQLC2-FLAG wild type (protein, UniProt Q6ZP29 1-291) MVWKKLGSRNFSSCPSGSIQWIWDVLGECAQDGWDEASVGLGLISILCFAASTFPQFIKAYKTGNMDQALSLWFLLGWIGGDSCNLIGSFLADQLPLQTYTAVYYVLADLVMLTLYFYYKFRTRPSLLSAPINSVLLFLMGMACATPLLSAAGPVAAPREAFRGRALLSVESGSKPFTRQEVIGFVIGSISSVLYLLSRLPQIRTNFLRKSTQGISYSLFALVMLGNTLYGLSVLLKNPEEGQSEGSYLLHHLPWLVGSLGVLLLDTIISIQFLVYRRSTAASELEPLLPS | binds | binds | no binding | no binding | no binding | binds | no binding | no binding |
| SMCR8 (protein, UniProt Q8TEV9 1-937) MISAPDVVAFTKEEEYEEEPYNEPALPEEYSVPLFPFASQGANPWSKLSGAKFSRDFILISEFSEQVGPQPLLTIPNDTKVFGTFDLNYFSLRIMSVDYQASFVGHPPGSAYPKLNFVEDSKVVLGDSKEGAFAYVHHLTLYDLEARGFVRPFCMAYISADQHKIMQQFQELSAEFSRASECLKTGNRKAFAGELEKKLKDLDYTRTVLHTETEIQKKANDKGFYSSQAIEKANELASVEKSIIEHQDLLKQIRSYPHRKLKGHDLCPGEMEHIQDQASQASTTSNPDESADTDLYTCRPAYTPKLIKAKSTKCFDKKLKTLEELCDTEYFTQTLAQLSHIEHMFRGDLCYLLTSQIDRALLKQQHITNFLFEDFVEVDDRMVEKQESIPSKPSQDRPPSSSLEECPIPKVLISVGSYKSSVESVLIKMEQELGDEEYKEVEVTELSSFDPQENLDYLDMDMKGSISSGESIEVLGTEKSTSVLSKSDSQASLTVPLSPQVVRSKAVSHRTISEDSIEVLSTCPSEALIPDDFKASYPSAINEEESYPDGNEGAIRFQASISPPELGETEEGSIENTPSQIDSSCCIGKESDGQLVLPSTPAHTHSDEDGVVSSPPQRHRQKDQGFRVDFSVENANPSSRDNSCEGFPAYELDPSHLLASRDISKTSLDNYSDTTSYVSSVASTSSDRIPSAYPAGLSSDRHKKRAGQNALKFIRQYPFAHPAIYSLLSGRTLVVLGEDEAIVRKLVTALAIFVPSYGCYAKPVKHWASSPLHIMDFQKWKLIGLQRVASPAGAGTLHALSRYSRYTSILDLDNKTLRCPLYRGTLVPRLADHRTQIKRGSTYYLHVQSMLTQLCSKAFLYTFCHHLHLPTHDKETEELVASRQMSFLKLTLGLVNEDVRVVQYLAELLKLHYMQESPGTSHPMLRFDYVPSFLYKI | no binding | no binding | binds | binds | binds | binds | binds | binds |
